Data from US8187373B2, “Printing inks for offset and/or high printing containing NIR absorbers and NIR absorbers soluble in offset and/or high printing inks” (BASF SE, priority 2004, dated 2012).
Some entries share one result that the patent states for a list of compounds.

Assay: Solubility of NIR absorbers in offset printing varnishes (polarization microscopy for undissolved crystals)
Assay type: physicochemical
Details: in both varnishes (heatset varnish and sheet-fed offset varnish); stirred at least 4 hours at 60° C., checked after cooling

`CCN1/C(=C/C=C2\CCC(/C=C/c3sc4ccccc4[n+]3CC)=C2c2c(O)n(C)c(=O)n(C)c2=O)Sc2ccccc21` [Compound A3] gave a solubility of less than 0.01 % by weight.
